This note sets out measurements from PubChem BioAssay AID901 (National Center for Advancing Translational Sciences (NCATS), 2007).

Structures are written as SMILES. This is one part of the list. Further columns of the screen follow, without active or inactive calls. Compounds called inactive in the main read-out are mostly missing here. Potencies come from curve fits of mixed quality, noted in brackets.

A short description of this assay: qHTS Assay for Identifying the Cell-Membrane Permeable IMPase Inhibitors. As to conditions: CHO-M1 cells, IP1 accumulation, HTRF TR-FRET ratio; measured here: donor channel 620 nm AC50. (In general: qHTS replaces the single test concentration by a dilution series.)
What is called AC50 is the concentration giving half of the maximal activity seen. Consider `CCOC(=O)c1ccc(NC(=O)CSc2nnc(C)n2-c2ccccc2)cc1`, for which the AC50 is 3.16 µM [falling, partial curve, poor fit]. As for `Cc1cccc(NC(=O)NCc2ccc3c(c2)cc(C)n3C)c1`, the concentration at half-maximal activity (AC50) was 35.5 µM [rising, single point]. Next, `COC(=O)c1cc(CSc2nnc(NC3CCCCC3)s2)oc1C`: 3.98 µM [falling, single point]. Next, `Cc1ccc(C(=O)N2CCN(c3cc4c(cc3[N+](=O)[O-])n(C)c(=O)n4C)CC2)cc1`: 0.398 µM [rising, partial curve, poor fit]. For the compound `COc1cc2c3nnc(-c4ccc(F)cc4)c-3cn(Cc3ccccc3)c2cc1OC`, the AC50 was 0.224 µM [falling, full curve]. Next, `COC(=O)c1ccccc1NC(=O)c1cc2nc(C3CC3)cc(C(F)(F)F)n2n1`: 6.31 µM [falling, single point]. Next, `COc1cccc(COc2ccccc2C2Nc3ccc(Br)cc3C(=O)N2NC(=O)c2ccncc2)c1` (stereo not drawn): 5.01 µM [falling, single point]; `COc1cccc(C(=O)Nc2ccc(NC(C)=O)cn2)c1`: 31.6 µM [falling, single point]; `NC(=O)Cc1c[nH]c2cccc(O)c12`: 31.6 µM [falling, single point].

Consider `COC(=O)CCc1c(C)c(C(=O)c2ccco2)c2ccccn12`, for which the half-maximal activity concentration (AC50) is 15.8 µM [rising, single point]. Regarding `Cc1ccc2nc(SCC(=O)NCc3cccs3)c(C#N)cc2c1`, the AC50 is 5.01 µM [rising, full curve].

Take `COc1ccc2[nH]c(=O)c(CNc3cccc(C)c3)cc2c1`: the AC50 was 1.58 µM [falling, partial curve, poor fit].

On to `CC1CN(c2nc3c(c(=O)n(Cc4ccc(Cl)c(Cl)c4)c(=O)n3C)n2C)CC(C)O1` (stereo not drawn), for which the concentration at half-maximal activity (AC50) was 1 µM [rising, partial curve].

As to `Fc1ccc(-c2nnc3sc(C4COc5ccccc5O4)nn23)cc1` (stereo not drawn), the AC50 is 5.01 µM [rising, partial curve, poor fit]. `CCOC(=O)c1c(C)[nH]sc1=S`: the half-maximal activity concentration (AC50) is 15.8 µM [rising, partial curve]. Next, `CCOc1cccc(NC(=O)CSc2nc(C)c3c(c2C#N)CCCC3)c1`: 3.16 µM [rising, single point]. Take `Cc1nnc2ccc(N3CCCC3)nn12`: the AC50 is 10 µM [rising, partial curve]. Next, `CCCNC(=O)c1cc(-c2ccco2)on1`: 0.0501 µM [rising, full curve, poor fit]; `O=C(NCCCN1CCOCC1)c1ccc(CS(=O)(=O)c2cccc(C(F)(F)F)c2)o1`: 6.31 µM [falling, single point]; `O=C(Oc1cncc(Cl)c1)c1ccco1`: 31.6 µM [falling, single point]. In the case of `Cc1ccccc1Nc1c(-c2ccc(N3CCOCC3)cc2)nc2ncccn12`, the half-maximal activity concentration (AC50) was 35.5 µM [rising, single point]. On to `COc1ccc(OC)c(S(=O)(=O)Nc2ccc(F)cc2)c1`, for which the concentration at half-maximal activity (AC50) is 5.01 µM [falling, single point]. Next, `Cc1nn(-c2ccccc2)c2[nH]c(=O)c(CNCc3ccc4c(c3)OCO4)cc12`: 0.794 µM [falling, partial curve, poor fit]; `Cc1ccc2[nH]c(=O)c(C(c3nnnn3CC3CCCO3)N3CCc4ccccc4C3)cc2c1` (stereo not drawn): 3.16 µM [falling, single point]. Next, `Cc1ccc(-c2nc3ccccc3o2)cc1NC(=S)NC(=O)c1cc2ccccc2o1`: 31.6 µM [rising, single point]. On to `CCCCN(CCCC)C(=O)CN(C)S(=O)(=O)c1ccc2c(c1)n(C)c(=O)c(=O)n2C`, for which the AC50 is 5.62 µM [rising, single point]. Next, `O=C(NCc1cccnc1)C1CCN(S(=O)(=O)N2CCOCC2)CC1`: 0.0316 µM [rising, full curve, poor fit]; `CC(C)c1ccc(C2N=C(N)Nc3nc4ccccc4n32)cc1` (stereo not drawn): 35.5 µM [rising, single point]. As to `COc1cc(C(=O)NCC2CCCO2)cc(OC)c1OC` (stereo not drawn), the AC50 was 2.51 µM [falling, single point].

Consider `O=C(NCc1cccc(Cl)c1)c1cnccn1`, for which the AC50 was 5.62 µM [falling, single point].

Turning to `CCC(=O)Nc1ccc(-c2nnc3c4ccccc4c(C)nn23)cc1`, the concentration at half-maximal activity (AC50) is 35.5 µM [rising, single point]. Next, `CCN(CC)S(=O)(=O)C1CCS(=O)(=O)C1` (stereo not drawn): 20 µM [falling, partial curve, poor fit]; `CN(C)c1cc(O)c(C(=S)Nc2ccccc2)c(N(C)C)c1`: 0.501 µM [rising, single point]. Next, `Cc1cc(C)n(CCOC(=O)c2sc3ccccc3c2Cl)n1`: 5.01 µM [rising, single point]. For `COC(=O)c1nnn(-c2ccccc2)c1N`, the AC50 is 0.158 µM [rising, full curve]. For `c1ccc2[nH]c(CSc3ncnc4c3oc3ccccc34)nc2c1`, the AC50 was 15.8 µM [rising, partial curve, poor fit]. Next, `Cn1nnnc1SCCNCc1ccc(Cl)cc1`: 3.98 µM [falling, partial curve, poor fit].

Consider `Cc1cc(C)c(C)c(Cn2c(CO)nc3ccccc32)c1C`, for which the AC50 is 1 µM [falling, full curve]. Next, `O=C(Cc1ccc(-n2cccc2)cc1)NC1CCCCCC1`: 0.355 µM [falling, partial curve].

Consider `CCOC(=O)CSc1nc(N)c(C#N)c(-c2ccc(OCC)cc2)c1C#N`, for which the AC50 is 31.6 µM [rising, single point].

Turning to `COc1cc(Br)c(/C=C(\C#N)c2nc3ccccc3[nH]2)cc1OC`, the AC50 is 0.251 µM [falling, full curve, poor fit].

In the case of `Cc1ccc(C)c(OCc2nc(-c3cccnc3)no2)c1`, the AC50 was 3.16 µM [rising, partial curve].

Take `CC(C)c1ccc(NC(=O)c2csnn2)cc1`: the AC50 is 10 µM [falling, partial curve, poor fit].

For `COc1ccc(-n2nc3cc(C)c(NC(=O)C(C)C)cc3n2)cc1`, the half-maximal activity concentration (AC50) is 5.01 µM [rising, single point]. As to `O=C(O)c1cccc(-n2nnnc2SCc2ccccn2)c1`, the AC50 is 0.126 µM [falling, full curve, poor fit]. Next, `CC(Oc1ccccc1)C(=O)Nc1ccc(S(=O)(=O)N2CCOCC2)cc1` (stereo not drawn): 35.5 µM [falling, single point]. In the case of `COc1ccc(-n2c(=O)cc(N3CCOCC3)[nH]c2=O)cc1`, the AC50 is 0.01 µM [rising, full curve, poor fit].

In the case of `O=c1nc2n(c3c1oc1ccccc13)Cc1ccccc1-2`, the concentration at half-maximal activity (AC50) was 15.8 µM [rising, single point].

For `CCCCC(=Nc1ccc(N)cc1)C1=C(O)C(C(=O)OC)C(C)(C)CC1=O` (stereo not drawn), the AC50 is 12.6 µM [falling, partial curve]. As to `Cc1nc(NC(=O)c2ccccc2)sc1-c1csc(Nc2cccc(Cl)c2)n1`, the AC50 was 1.26 µM [falling, full curve, poor fit]. Next, `O=c1c2ccccc2nnn1Cc1ccccn1`: 1.58 µM [falling, partial curve]; `CCOc1ccc(Nc2cc(C)nc(-n3nc(C)cc3C)n2)cc1`: 3.16 µM [falling, single point]; `Cc1nn(Cc2ccc(C(=O)Nc3nccs3)cc2)c(C)c1Cl`: 3.16 µM [rising, partial curve]. Consider `Cc1ccc(S(=O)(=O)NCC(=O)NC2CCCC2)cc1`, for which the AC50 was 0.398 µM [rising, full curve, poor fit]. Next, `COc1ccc(C(=O)/C=C/Nc2ccc(NC(C)=O)cc2)cc1OC`: 3.98 µM [falling, full curve, poor fit]; `Cc1nn(-c2ccccc2)c(C)c1C(=O)OCC(=O)NC(=O)NC1CCCC1`: 3.98 µM [rising, single point]; `O=C(Nc1ccc(Cl)cc1)Nc1ccc(N2CCOCC2)cc1`: 0.0178 µM [falling, full curve, poor fit]. Turning to `Cc1cc2c(cc1C)C(=O)NC(C)(C)C2`, the AC50 is 35.5 µM [falling, single point]. Next, `CCOC(=O)c1cnc2ccc(OCC)cc2c1N1CCN(C)CC1`: 0.0316 µM [rising, full curve, poor fit]; `CCOc1ccc2nc(SCC(=O)N(C)C3CCS(=O)(=O)C3)[nH]c2c1` (stereo not drawn): 0.2 µM [rising, full curve, poor fit].

`CCCCn1nnc(NC(=O)c2sc3cc(Cl)ccc3c2Cl)n1`: the AC50 was 12.6 µM [rising, partial curve]. Next, `CCCCn1c(NCc2ccc(N(C)C)cc2)nc2ccccc21`: 0.158 µM [falling, full curve, poor fit]. Consider `CN1CCN(C(=O)c2ccc3c(c2)NC(=O)C(C)(C)O3)CC1`, for which the concentration at half-maximal activity (AC50) is 6.31 µM [falling, single point]. In the case of `COc1ccc2nc(C)cc(Nc3ccc(Cl)c(Cl)c3)c2c1`, the AC50 was 25.1 µM [falling, single point]. Next, `C=CCn1c(=O)c(C(=O)NCCc2ccccc2)c(O)c2ccccc21`: 15.8 µM [falling, partial curve]; `CCOc1ccc(C2C(=O)N(C3CCCCC3)CC(=O)N2CC2CCCO2)cc1OC` (stereo not drawn): 31.6 µM [falling, single point].

Take `N=c1oc2ccccc2cc1-c1nc2ccccc2c(=O)[nH]1`: the AC50 is 31.6 µM [rising, single point]. Next, `O=C(C1CCCN(S(=O)(=O)c2ccc(Br)s2)C1)N1CCN(c2ccccc2F)CC1` (stereo not drawn): 31.6 µM [falling, single point].
